# Patent US20220347256A1 (Biosolution Co., Ltd., priority 2019, published 2022)
# Assay: peptide synthesis
# Details: whole synthesis
substance,measurement,value
Arg-Pro-Lys-Pro-Gln-Gln-Phe-Phe-Gly-Leu-Met-NH2,final purity (method not given),85% or more
